Like-named read-outs stand apart in the source and are kept apart here. Some of these results come from one statement about several compounds together.
Target: HIV-1 fusion (gp160 induced cell-cell fusion; HeLa P4 cell line expressing CCR5 and CD4 / CHO-Tat10 cell line) (Homo sapiens, UniProt P51681)
Assay: gp160 induced cell-cell fusion assay
Type: cell-based
From the text: Biol., 60, 147-52 (1996); and/or by using the intracellular calcium mobilisation assays as described by the same authors, and/or inhibiting cell fusion following procedures disclosed in Bradley et al., J Biomol Screen 9, 516-24 (2004).
The gp160 induced cell-cell fusion assay uses a HeLa P4 cell line and a CHO-Tat10 cell line.
The HeLa P4 cell line expresses CCR5 and CD4 and has been transfected with HIV-1 LTR-β-Galactosidase. The media for this cell line is Dulbecco modified eagle's medium (D-MEM) (without L-glutamine) containing 10% foetal calf serum (FCS), 2 mM L-glutamine, penicillin/streptomycin (Pen/Strep; 100 U/mL penicillin+[…] streptomycin), and 1 μg/ml puromycin.
The CHO cell line is a Tat (transcriptional trans activator)-expressing clone from a CHO JRR17.1 cell line that has been transfected with pTat puro plasmid. The media for this cell line is rich medium for mammalian cell culture originally developed at Roswell Park Memorial Institute RPMI1640 (without L-glutamine) containing 10% FCS, 2 mM L-glutamine, 0.5 mg/ml Hygromycin B and 12 µg/ml puromycin. The CHO JRR17.1 line expresses gp160 (JRFL) and is a clone that has been selected for its ability to fuse with a CCR5/CD4 expressing cell line.
Upon cell fusion, Tat present in the CHO cell is able to transactivate the HIV-1 long terminal repeat (LTR) present in the HeLa cell leading to the expression of the β-Galactosidase enzyme. This expression is then measured using a Fluor Ace™ β-Galactosidase reporter assay kit (Bio-Rad cat no. 170-3150). This kit is a quantitative fluorescent assay that determines the level of expression of β-galactosidase using 4-methylumbelliferyl-galactopyranoside (MUG) as substrate. β-Galactosidase hydrolyses the fluorogenic substrate resulting in release of the fluorescent molecule 4-methylumbelliferone (4MU). Fluorescence of 4-methylumbelliferone is then measured on a fluorometer using an excitation wavelength of 360 nm and emission wavelength of 460 nm.
Compounds that inhibit fusion will give rise to a reduced signal and, following solubilisation in an appropriate solvent and dilution in culture medium, a dose-response curve for each compound can be used to calculate IC50 values.

By UniProt entry, the sequences of proteins in these tests, tags left out.
UniProt P51681, whole entry: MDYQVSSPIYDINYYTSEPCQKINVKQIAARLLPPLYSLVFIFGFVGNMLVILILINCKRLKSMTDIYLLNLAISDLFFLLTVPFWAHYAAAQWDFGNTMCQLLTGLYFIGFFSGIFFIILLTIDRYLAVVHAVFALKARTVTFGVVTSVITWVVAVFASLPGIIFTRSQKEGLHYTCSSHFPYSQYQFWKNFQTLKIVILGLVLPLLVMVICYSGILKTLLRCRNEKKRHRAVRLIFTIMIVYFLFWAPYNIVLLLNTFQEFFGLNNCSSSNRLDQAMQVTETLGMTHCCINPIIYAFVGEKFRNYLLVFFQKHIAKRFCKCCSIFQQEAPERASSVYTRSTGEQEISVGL

[1] = list of examples with activity of less than 5 nM, read-out: activity in our cell fusion assay
[2] = statement for the examples within formula (I), read-out: IC50 in the cell fusion assay
[3] = read-out: activity in our cell fusion assay, list of examples with activity of less than 5 nM

SMILES	IC50 [1]	IC50 [2]	IC50 [3]
CC(=O)N1CCc2nc(C)n(C3CCN(C(C)C[C@H](NC(=O)C4(C)CC4)c4ccccc4)CC3)c2C1 (stereo partly drawn) [Example 55]	< 5 nM	< 1500 nM	
CCCC(=O)N[C@@H](CC(C)N1CCC(n2c(C)nc3c2CN(C(C)=O)CC3)CC1)c1ccccc1 (stereo partly drawn) [Example 56, N-{(1S)-3-[4-(5-acetyl-2-methyl-4,5,6,7-tetrahydro-3H-imidazo[4,5-c]pyridin-3-yl)piperidin-1-yl]-1-phenylbutyl}butanamide]	< 5 nM	< 1500 nM	
CC(=O)N1CCc2nc(C)n(C3CCN(C(C)C[C@H](NC(=O)C4CCC4)c4cccc(F)c4)CC3)c2C1 (stereo partly drawn) [Example 57]	< 5 nM	< 1500 nM	
CC(=O)N1CCc2nc(C)n(C3CCN(C(C)C[C@H](NC(=O)C(C)C)c4cccc(F)c4)CC3)c2C1 (stereo partly drawn) [Example 58, N-[(1S)-3-[4-(5-acetyl-2-methyl-4,5,6,7-tetrahydro-3H-imidazo[4,5-c]pyridin-3-yl)piperidin-1-yl]-1-(3-fluorophenyl)butyl]-2-methylpropanamide]	< 5 nM	< 1500 nM	
COC(=O)N[C@@H](CC(C)N1CCC(n2c(C)nc3c2CN(C(C)=O)CC3)CC1)c1cccc(F)c1 (stereo partly drawn) [Example 59]		< 1500 nM	
CC(=O)N1CCc2nc(C)n(C3CCN(C(C)C[C@H](NC(=O)C4CC4)c4cccc(F)c4)CC3)c2C1 (stereo partly drawn) [Example 60]	< 5 nM	< 1500 nM	
CC(=O)N1CCc2nc(C)n(C3CCN(C(C)C[C@H](NC(=O)OC(C)C)c4cccc(F)c4)CC3)c2C1 (stereo partly drawn) [Example 61]	< 5 nM	< 1500 nM	
CCC(=O)N[C@@H](CC(C)N1CCC(n2c(C)nc3c2CN(C(C)=O)CC3)CC1)c1cccc(F)c1 (stereo partly drawn) [Example 62, N-[(1S)-3-[4-(5-acetyl-2-methyl-4,5,6,7-tetrahydro-3H-imidazo[4,5-c]pyridin-3-yl)piperidin-1-yl]-1-(3-fluorophenyl)butyl]propanamide]	< 5 nM	< 1500 nM	
CC(=O)N1CCc2nc(C)n(C3CCN(C(C)C[C@H](NC(=O)OC(C)C)c4ccccc4)CC3)c2C1 (stereo partly drawn) [Example 63]	< 5 nM	< 1500 nM	
CC(=O)N[C@@H](CC(C)N1CCC(n2c(C)nc3c2CN(C(=O)C(C)C)CC3)CC1)c1cccc(F)c1 (stereo partly drawn) [Example 64]	< 5 nM	< 1500 nM	
CCC(=O)N[C@@H](CC(C)N1CCC(n2c(C)nc3c2CN(C(=O)C(C)C)CC3)CC1)c1cccc(F)c1 (stereo partly drawn) [Example 65]	< 5 nM	< 1500 nM	
CCOC(=O)N1CCc2nc(C)n(C3CCN(C(C)C[C@H](NC(C)=O)c4cccc(F)c4)CC3)c2C1 (stereo partly drawn) [Example 66, Ethyl 3-{1-[(3S)-3-(acetylamino)-3-(3-fluorophenyl)-1-methylpropyl]piperidin-4-yl}-2-methyl-3,4,6,7-tetrahydro-5H-imidazo[4,5-c]pyridine-5-carboxylate]	< 5 nM	< 1500 nM	
CCC(=O)N[C@@H](CC(C)N1CCC(n2c(C)nc3c2CN(C(=O)OC)CC3)CC1)c1cccc(F)c1 (stereo partly drawn) [Example 67]	< 5 nM	< 1500 nM	
COC(=O)N1CCc2nc(C)n(C3CCN(C(C)C[C@H](NC(=O)C(C)C)c4cccc(F)c4)CC3)c2C1 (stereo partly drawn) [Example 68]	< 5 nM	< 1500 nM	
CCCC(=O)N[C@@H](CC(C)N1CCC(n2c(C)nc3c2CN(C(=O)OC)CC3)CC1)c1cccc(F)c1 (stereo partly drawn) [Example 69, Methyl 3-{1-[(3S)-3-(butyrylamino)-3-(3-fluorophenyl)-1-methylpropyl]piperidin-4-yl}-2-methyl-3,4,6,7-tetrahydro-5H-imidazo[4,5-c]pyridine-5-carboxylate]	< 5 nM	< 1500 nM	
COC(=O)N1CCc2c(nc(C)n2C2CCN(C(C)C[C@H](NC(=O)C3CC(F)(F)C3)c3cccc(F)c3)CC2)C1 (stereo partly drawn) [Example 80, Methyl 1-{1-[(3S)-3-{[(3,3-difluorocyclobutyl)carbonyl]amino}-3-(3-fluorophenyl)-1-methylpropyl]piperidin-4-yl}-2-methyl-1,4,6,7-tetrahydro-5H-imidazo[4,5-c]pyridine-5-carboxylate]	< 5 nM	< 1500 nM	
CCC(=O)N[C@@H](CC(C)N1CCC(n2c(C)nc3c2CCN(C(=O)OC)C3)CC1)c1cccc(F)c1 (stereo partly drawn) [Example 91]		< 1500 nM	
CCC(=O)N[C@@H](CC(C)N1CCC(n2c(C)nc3c2CCN(C(=O)OC)C3)CC1)c1ccccc1 (stereo partly drawn) [Example 92, methyl 2-methyl-1-{1-[(3S)-1-methyl-3-phenyl-3-(propionylamino)propyl]piperidin-4-yl}-1,4,6,7-tetrahydro-5H-imidazo[4,5-c]pyridine-5-carboxylate]		< 1500 nM	< 5 nM
CC(=O)N1CCc2c(nc(C)n2C2CCN(C(C)C[C@H](NC(=O)C(C)C)c3cccc(F)c3)CC2)C1 (stereo partly drawn) [Example 94, N-[(1S)-3-[4-(5-acetyl-2-methyl-4,5,6,7-tetrahydro-1H-imidazo[4,5-c]pyridin-1-yl)piperidin-1-yl]-1-(3-fluorophenyl)butyl]-2-methylpropanamide]		< 1500 nM	< 5 nM
CC(=O)N1CCc2c(nc(C)n2C2CCN(C(C)C[C@H](NC(=O)C3CC3)c3cccc(F)c3)CC2)C1 (stereo partly drawn) [Example 103]	< 5 nM	< 1500 nM	
CCC(=O)N[C@@H](CC(C)N1CCC(n2c(C)nc3c2CCN(C(C)=O)C3)CC1)c1cccc(F)c1 (stereo partly drawn) [Example 104, N-[(1S)-3-[4-(5-acetyl-2-methyl-4,5,6,7-tetrahydro-1H-imidazo[4,5-c]pyridin-1-yl)piperidin-1-yl]-1-(3-fluorophenyl)butyl]propanamide]		< 1500 nM	< 5 nM
CC(C)c1noc(C2CCN(C(C)C[C@H](NC(=O)C3CCC3)c3ccccc3)CC2)n1 (stereo partly drawn) [Example 105, N-{(1S)-3-[4-(3-isoPropyl-1,2,4-oxadiazol-5-yl)piperidin-1-yl]-1-phenylbutyl}cyclobutanecarboxamide]		< 1500 nM	
CC(C)c1nccn1C1CCN(C(C)C[C@H](NC(=O)C2CCC(F)(F)CC2)c2ccccc2)CC1 (stereo partly drawn) [Example 111, 4,4-Difluoro-N-{(1S)-3-[4-(2-isopropyl-1H-imidazol-1-yl)piperidin-1-yl]-1-phenylbutyl}cyclohexanecarboxamide]	< 5 nM	< 1500 nM	
Cc1nccn1C1CCN(C(C)C[C@H](NC(=O)C2CCC(F)(F)CC2)c2ccccc2)CC1 (stereo partly drawn) [Example 112, 4,4-Difluoro-N-{(1S)-3-[4-(2-methyl-1H-imidazol-1-yl)piperidin-1-yl]-1-phenylbutyl}cyclohexanecarboxamide]	< 5 nM	< 1500 nM	

— US20090209578A1, “CHEMICAL COMPOUNDS” (PFIZER INC, priority 2005, published 2009)
